PubChem BioAssay AID493246 | Drosophila RNAi Screening Center – 2011

Purpose: 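Genes fly cells need to grow and stay alive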 (primary screen)
Cells: Drosophila Kc and S2R+ cells
Knock-down reagent: long dsRNA against Drosophila genes
Measured: 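Raw, unnormalised count of remaining cells in each well; per-plate z-scores of cell number underlie the calls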
Reading the numbers: Kc cell number and S2R+ cell number: higher = more cells remaining
Call rule: 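Counted as a hit if cell number falls by a z-score of at least 3 within its plate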
In all, the deposit lists about 21,000 reagents; shown is a random part of those with a known target gene and a result. Of all reagents, 429 (2%) were called active. 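Values are raw and not normalised between plates; calls rest on per-plate z-scores that were not deposited.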 Reagents against one gene are numbered here. Not stated in the record: the amount of reagent, the time to read-out.

| target gene | reagent | Kc cell number, rep 1 | Kc cell number, rep 2 | S2R+ cell number, rep 1 | S2R+ cell number, rep 2 | Call |
| --- | --- | --- | --- | --- | --- | --- |
| CG31245 | 1 | 1.36e6 | 1.35e6 | 1.04e6 | 1.08e6 | inactive |
| CG8738 | 1 | 1.69e6 | 1.70e6 | 1.31e6 | 1.43e6 | inactive |
| CG4461 | 1 | 1.46e6 | 1.52e6 | 1.22e6 | 1.34e6 | inactive |
| CG6295 | 1 | 1.64e6 | 1.67e6 | 9.52e5 | 1.06e6 | inactive |
| mRpL36 | 1 | 1.40e6 | 1.35e6 | 1.09e6 | 1.18e6 | inactive |
| CG9313 | 1 | 1.65e6 | 1.72e6 | 9.83e5 | 1.07e6 | inactive |
| CG13539 | 1 | 1.51e6 | 1.60e6 | 1.28e6 | 1.39e6 | inactive |
| nan | 1 | 1.51e6 | 1.49e6 | 1.21e6 | 1.40e6 | inactive |
| CG32846 | 1 | 1.51e6 | 1.62e6 | 1.13e6 | 1.20e6 | inactive |
| bwa | 1 | 4.61e5 | – | 8.33e5 | – | inactive |
| bwa | 2 | 1.48e6 | 1.67e6 | 1.35e6 | 3.01e5 | inactive |
| CG13674 | 1 | 1.63e6 | 1.72e6 | 1.26e6 | 1.13e6 | inactive |
| Psi | 1 | 1.78e6 | 1.77e6 | 1.20e6 | 1.29e6 | inactive |
| Idh | 1 | 1.41e6 | 1.55e6 | 1.21e6 | 1.00e6 | inactive |
| RabX5 | 1 | 1.62e6 | 1.54e6 | 1.07e6 | 1.38e6 | inactive |
| CG4866 | 1 | 1.54e6 | 1.67e6 | 1.32e6 | 1.51e6 | inactive |
| beat-VI | 1 | 1.45e6 | 1.49e6 | 9.91e5 | 1.11e6 | inactive |
| beat-VI | 2 | 1.41e6 | 1.47e6 | 9.71e5 | 1.08e6 | inactive |
| CG13067 | 1 | 1.33e6 | 1.58e6 | 1.33e6 | 1.63e6 | inactive |
| Ts | 1 | 1.65e6 | 1.65e6 | 1.13e6 | 1.31e6 | inactive |
| mRpL17 | 1 | 1.53e6 | 1.43e6 | 9.29e5 | 1.10e6 | inactive |
| armi | 1 | 1.58e6 | 1.37e6 | 1.03e6 | 1.20e6 | inactive |
| CG16812 | 1 | 1.35e6 | 1.44e6 | 1.09e6 | 1.21e6 | inactive |
| botv | 1 | 1.33e6 | 1.40e6 | 9.34e5 | 9.89e5 | inactive |
| CG4151 | 1 | 1.50e6 | 1.49e6 | 1.02e6 | 1.17e6 | inactive |
| Gos28 | 1 | 1.27e6 | 1.39e6 | 1.03e6 | 1.09e6 | inactive |
| Crys | 1 | 1.30e6 | 1.38e6 | 9.73e5 | 1.08e6 | inactive |
| CG4991 | 1 | 1.53e6 | 1.63e6 | 1.02e6 | 1.17e6 | inactive |
| Ir25a | 1 | 1.44e6 | 1.41e6 | 1.18e6 | 1.28e6 | inactive |
| CG13003 | 1 | 1.56e6 | 1.54e6 | 1.13e6 | 1.22e6 | inactive |
| Mur82C | 1 | 1.71e6 | 1.78e6 | 8.63e5 | 1.05e6 | active |
| Mur82C | 2 | 1.34e6 | 1.30e6 | 1.35e6 | 1.40e6 | inactive |
| Hmt4-20 | 1 | 4.73e5 | – | 6.96e5 | – | inactive |
| CG11309 | 1 | 1.64e6 | 1.62e6 | 1.43e6 | 1.47e6 | inactive |
| rib | 1 | 1.38e6 | 1.40e6 | 1.15e6 | 1.20e6 | inactive |
| ranshi | 1 | 1.41e6 | 1.44e6 | 1.31e6 | 1.38e6 | inactive |
| CG8861 | 1 | 1.63e6 | 1.65e6 | 1.13e6 | 1.38e6 | inactive |
| CG8861 | 2 | 1.75e6 | 1.72e6 | 1.27e6 | 1.37e6 | inactive |
| CG2145 | 1 | 5.94e5 | – | 8.38e5 | – | inactive |
| exp | 1 | 1.45e6 | 1.52e6 | 9.42e5 | 1.08e6 | inactive |
